Patent US20230194511A1, “Compound Fixing Method, Detection Method, Screening Method, Substrate Used in Same, Compound Fixing Agent, and Fixing Kit” (priority 2020, published 2023)

Legend:
[1] = system: anti-penicillin antibodies; experiment: Compound microarray, detection with anti-penicillin antibodies (Examples 3 and 4, clone not stated); format: binding; conditions: immobilized onto a glass slide
[2] = system: anti-gentamycin antibodies; experiment: Compound microarray, detection of immobilized compound with anti-gentamycin antibodies; format: binding, mouse; conditions: immobilized onto a glass slide
Procedure: Further, compounds of bovine serum albumin (BSA) covalently bonded to these 14 compounds in advance (Imgen BioSciences) were printed on glass slides as control samples for comparison. The compounds mixed with HSA were each dissolved in solution A for protein microarrays only (Fukushima Protein Factory) to a concentration of 0.5 mM. Furthermore, HSA was prepared and mixed with the solutions A including the compounds, bringing the final concentrations to 0.1 micrograms/microliter. It should be noted that the printing of each compound on a glass slide was performed by spotting microdroplets of approximately 2 to 4 nl on the glass slide by using an ultratrace dispensing system (Micro Diagnostic).
The compound microarrays printed with the compounds were immersed in ethanol and shaken for 30 seconds at room temperature. Subsequently, the compound microarrays were immersed in ultrapure water and shaken for 30 seconds at 26° C. It should be noted that the shaking by ultrapure water was performed twice. For solution replacement, the compound microarrays were immersed in solution A for protein microarrays only (Fukushima Protein Factory, Fukushima, Japan) and shaken for about five minutes at 26° C.
The compound microarrays treated as described above were immersed in Blocking One (Nacalai Tesque, Kyoto, Japan) and shaken for one hour at 26° C. Subsequently, the compound microarrays were immersed in solution A for protein microarrays only and shaken for about five minutes at 26° C.
Using a solution obtained by adding 1/4000 volume of Goat Reference Antibody Mixture I (Fukushima Protein Factory) to the primary antibody diluent for protein microarrays only (Fukushima Protein Factory), one of eight mouse monoclonal anti-compound antibodies (Table 2) was diluted to 1 microgram/milliliter.
Two milliliters of the solution with the diluted primary antibody were added to a P-DE1 cassette for protein microarrays (Fukushima Protein Factory). The compound microarrays were immersed therein, the lid of the cassette was placed thereon, the cassette was sealed with a special clip, and reactions were permitted with shaking for about 17 hours at 37° C.
After the reaction with the primary antibody, the compound microarrays were immersed in solution A for protein microarrays only and shaken for one minute at 26° C. It should be noted that this process was repeated three times.
1/500 volume of Cy3-labeled anti-goat IgG (Jackson) and Alexa Fluor 647-labeled anti-mouse IgG antibody (Jackson) were added to a secondary antibody diluent for protein microarrays only, and 2 milliliters of the solution were added to a P-DE1 cassette for protein microarrays. The compound microarrays were immersed therein, the lid of the cassette was placed thereon, the cassette was sealed with a special clip, and reactions were permitted with shaking for about one hour at 26° C.
After the reaction with the secondary antibodies, the compound microarrays were immersed in solution A for protein microarrays only and shaken for one minute at 26° C. It should be noted that this process was repeated three times.
It should be noted that this process was repeated three times.

[3] = compound mixed with apo-transferrin
[4] = compound mixed with holo-transferrin
[5] = compound mixed with ovalbumin (egg white)

Row | Compound | signal intensity relative to the compound mixed with HSA [1, 3] | signal intensity relative to the compound mixed with HSA [1, 4] | signal intensity relative to the compound mixed with HSA [1, 5] | signal intensity relative to the compound mixed with HSA ([1]; compound mixed with ovalbumin) | signal intensity relative to the compound mixed with HSA ([2]; compound mixed with alpha 2-macroglobulin) | signal intensity relative to the compound mixed with HSA [2, 3] | signal intensity relative to the compound mixed with HSA ([2]; compound mixed with lysozyme (ThermoPhage)) | signal intensity relative to the compound mixed with HSA ([2]; compound mixed with lysozyme (egg allergen)) | signal intensity relative to the compound mixed with HSA [2, 5] | signal intensity relative to the compound mixed with HSA ([2]; compound mixed with ovalbumin)
1 | CC1(C)S[C@@H]2[C@H](NC(=O)Cc3ccccc3)C(=O)N2[C@H]1C(=O)O [benzyl penicillin potassium] | approximately 1.3 times | approximately 1.3 times | approximately 2.1 times | approximately 1.8 times | – | – | – | – | – | –
2 | CC1(C)S[C@@H]2[C@H](NC(=O)Cc3ccccc3)C(=O)N2[C@H]1C(=O)[O-].[Na+] [penicillin G sodium] | – | approximately 1.2 times | approximately 1.6 times | approximately 2.3 times | – | – | – | – | – | –
3 | gentamycin sulfate | – | – | – | – | approximately 1.7 times | approximately 2.4 times | approximately 1.4 times | approximately 1.4 times | approximately 5.6 times | approximately 3.0 times
